Record: PubChem BioAssay AID1259405 (NCATS, 2018)
The deposit covers about 50,000 reagents; this is a part drawn at random. About 4,000 of all reagents (8%) were called active. 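Mouse siRNA library applied to hamster cells; one well for each siRNA.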 Unmarked entries are inactive. Reagents against one gene are numbered here.

Assay: 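Silenced genes that increase secreted GFP made by CHO cells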 (primary screen)
System: Chinese hamster CHO-K1 ovary cells with stable secreted eGFP expression
Reagent: single siRNA against mouse genes, 0.8 pmol siRNA per well (2 µl of 400 nM stock)
Time to read-out: 3 days
Read-out: 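Percent of the per-plate non-targeting control median for intracellular GFP per well by laser scanning cytometry and for cell viability by ATP luminescence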
Scale: GFP, % of control: higher = more GFP per well, higher productivity; viability (ATP), % of control: higher = more viable cells (more ATP)
Rule for the call: 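a knock-down is called active if GFP reaches 120% or more of non-targeting control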

target | reagent no. | GFP, % of control | viability (ATP), % of control
Mas1 (GeneID 17171) | 1 | 82.1 | 84.4
Mas1 (GeneID 17171) | 2 | 87.5 | 84.2
Mas1 (GeneID 17171) | 3 | 73.4 | 69.5
Lypd3 (GeneID 72434) | 1 | 75.3 | 50.9
Lypd3 (GeneID 72434) | 2 | 29.5 | 16.6
Lypd3 (GeneID 72434) | 3 | 65.8 | 60.5
Kdm4d (GeneID 244694) | 1 | 69 | 67.1
Kdm4d (GeneID 244694) | 2 | 86.6 | 69.2
Kdm4d (GeneID 244694) | 3 | 103 | 86.6
Xkr4 (GeneID 497097) | 1 | 72.9 | 99.8
Xkr4 (GeneID 497097) | 2 | 51.5 | 66.1
Xkr4 (GeneID 497097) | 3 | 72.2 | 88.2
Chd1l (GeneID 68058) | 1 | 183 (active) | 88.1
Chd1l (GeneID 68058) | 2 | 65.5 | 71.1
Chd1l (GeneID 68058) | 3 | 59.1 | 72
Dapk3 (GeneID 13144) | 1 | 81.9 | 52.4
Hdac10 (GeneID 170787) | 1 | 68.7 | 74.3
Hdac10 (GeneID 170787) | 2 | 113 | 68.6
Hgfac (GeneID 54426) | 1 | 114 | 64.2
Hgfac (GeneID 54426) | 2 | 48.3 | 60.6
Hgfac (GeneID 54426) | 3 | 68.2 | 46.7
Sectm1b (GeneID 58210) | 1 | 129 (active) | 73.9
Sectm1b (GeneID 58210) | 2 | 70.5 | 69.6
Sectm1b (GeneID 58210) | 3 | 61.2 | 91.4

Records above whose gene name begins with K or k:
target | reagent no. | GFP, % of control | viability (ATP), % of control
Kdm4d (GeneID 244694) | 1 | 69 | 67.1
Kdm4d (GeneID 244694) | 2 | 86.6 | 69.2
Kdm4d (GeneID 244694) | 3 | 103 | 86.6

Additional records:
target | reagent no. | GFP, % of control | viability (ATP), % of control
9430097D07Rik (GeneID 319245) | 1 | 73.9 | 73.2
9430097D07Rik (GeneID 319245) | 2 | 92.6 | 61.3
9430097D07Rik (GeneID 319245) | 3 | 50.6 | 66
Tas2r110 (GeneID 387344) | 1 | 79.7 | 85.1
Tas2r110 (GeneID 387344) | 2 | 92.6 | 102
Tas2r110 (GeneID 387344) | 3 | 110 | 128
Srsf5 (GeneID 20384) | 1 | 60.6 | 76.9
Srsf5 (GeneID 20384) | 2 | 58.1 | 41.2
Srsf5 (GeneID 20384) | 3 | 38.3 | 41.6
Wdr20 (GeneID 69641) | 1 | 41.6 | 67.9
Wdr20 (GeneID 69641) | 2 | 82.1 | 60.8
Wdr20 (GeneID 69641) | 3 | 88.4 | 97.8
